From paper doi:10.1101/2020.08.04.235721
These are yes or no findings as the source states them, for the method shown. In cells and extracts the contact can be indirect. Some entries that bind do so weakly or less than the wild type.

Molecular target: T1, iron regulatory protein 1 (IRP1), endogenous in Jurkat cells (human (endogenous in Jurkat)) (UniProt P21399)
T1 sequence: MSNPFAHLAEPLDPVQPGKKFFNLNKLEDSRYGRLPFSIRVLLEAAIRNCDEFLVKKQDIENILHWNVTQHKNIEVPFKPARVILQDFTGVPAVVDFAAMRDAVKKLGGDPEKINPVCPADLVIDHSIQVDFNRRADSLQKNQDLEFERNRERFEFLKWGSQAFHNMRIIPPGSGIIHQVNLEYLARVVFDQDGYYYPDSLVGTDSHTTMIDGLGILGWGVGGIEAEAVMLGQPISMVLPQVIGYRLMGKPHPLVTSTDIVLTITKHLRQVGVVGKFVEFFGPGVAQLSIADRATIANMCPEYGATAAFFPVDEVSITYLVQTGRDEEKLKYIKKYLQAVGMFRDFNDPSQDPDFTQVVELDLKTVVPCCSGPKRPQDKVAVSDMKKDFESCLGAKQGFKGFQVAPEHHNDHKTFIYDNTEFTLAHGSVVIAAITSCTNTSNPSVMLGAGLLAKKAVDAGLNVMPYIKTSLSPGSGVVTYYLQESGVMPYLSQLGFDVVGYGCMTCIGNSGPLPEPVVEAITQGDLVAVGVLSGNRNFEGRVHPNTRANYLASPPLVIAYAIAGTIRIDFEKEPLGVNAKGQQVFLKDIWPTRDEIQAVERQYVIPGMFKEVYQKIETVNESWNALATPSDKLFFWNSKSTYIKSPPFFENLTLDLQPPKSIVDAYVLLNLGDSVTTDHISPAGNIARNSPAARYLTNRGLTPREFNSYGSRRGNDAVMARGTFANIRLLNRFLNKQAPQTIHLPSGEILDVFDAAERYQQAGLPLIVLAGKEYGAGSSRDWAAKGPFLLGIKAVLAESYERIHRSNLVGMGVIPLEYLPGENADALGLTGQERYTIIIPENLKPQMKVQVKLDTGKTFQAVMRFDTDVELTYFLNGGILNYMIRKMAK
Experiment: co-IP

binding: binds
B1: thioredoxin 1 (Trx1), endogenous in Jurkat cells (protein, UniProt P10599 1-105)
chain: MVKQIESKTAFQEALDAAGDKLVVVDFSATWCGPCKMIKPFFHSLSEKYSNVIFLEVDVDDCQDVASECEVKCMPTFQFFKKGQKVGEFSGANKEKLEATINELV
